In patent publication US20020165188A1, “Methods for inhibition of tumorigenic properties of melanoma cells” (priority 1999, published 2002):
For at least one compound, name, drawing or mass did not settle the structure.

Assays:
[1] = system: E-cadherin; test: E-cadherin expression in melanocytic cells under HGF stimulation (immunoblot); assay type: cell-based, human; details: autocrine activation by HGF-expressing adenovirus; melanocytes, WM164, WM35
Experimental: (§1) Optimal viral concentrations for infection were determined as the amounts of virus required to yield the desired levels of gene expression without apparent alteration in cellular phenotype or toxicity. Subconfluent melanocytes and melanoma cells were infected with adenoviruses for 2-4 hours at 37° C. in protein-free W489 medium. Viral suspension was then replaced with culture medium. Because dominant negative Desmoglein-3 vector AxCALNLDsg3ΔEC and E-cadherin vector AxCALNLEcadΔEC were made using the Cre-loxP system (Hanakawa et al., 2000), AxCANCre was co-infected with AxCALNLDsg3ΔEC or AxCALNLEcacLΔEC at a ratio of 1:1, respectively. Cells were allowed to recover for at least 24 hours before assay.
(§2) For immunoblotting, cells were washed with PBS and harvested in RIPA buffer. Total protein concentrations were measured using the bicinchoninic acid (BCA) assay (Pierce Chemical Co. Rockford, Ill.). Samples were loaded at 15 μg/lane and separated on 8% SDS polyacrylamide gels and transferred to polyvinylidene difluoride (PVDF) membranes and probed with specific primary antibodies. To detect the signal, peroxidase-conjugated secondary antibody was added, followed by exposure using enhanced chemiluminescence (ECL) (Amersham, Arlington Heights, Ill.). Some of the immunoblots were quantified using NIH Image (version 1.61).

[2] = system: Desmoglein 1; test: Desmoglein 1 expression in melanocytic cells under HGF stimulation (immunoblot); assay type: cell-based, human; details: autocrine activation by HGF-expressing adenovirus; melanocytes, WM164, WM35
Experimental: as §1, §2

## COC[C@H]1OC(=O)c2coc3c2[C@@]1(C)C1=C(C3=O)[C@@H]2CCC(=O)[C@@]2(C)C[C@H]1OC(C)=O [wortmannin]
[1]
  blocking of downregulation of E-cadherin (summary statement): partially blocked
[2]
  blocking of downregulation of Desmoglein 1 (summary statement): partially blocked
